In article doi:10.1101/2023.05.19.541433:
These are yes or no findings as the source states them, for the method shown. Binding seen in cells or lysates may run through a third protein. Binding can be weak; no strength is given. Tags and fused reporters may be left off the sequences shown.

Target: T1, GFP-S100A11 (S100 Ca2+-binding protein A11) (human) (UniProt P31949)
T1 sequence: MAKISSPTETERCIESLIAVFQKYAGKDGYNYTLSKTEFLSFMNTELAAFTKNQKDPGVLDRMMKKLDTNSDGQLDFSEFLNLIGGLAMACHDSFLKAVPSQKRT
Experiment: co-IP

- binding: binds
Substance: E-cadherin (human (endogenous in MCF-10A))
